The supplement of paper PMC7666118
The list shows a part of the results.

By UniProt entry, the sequences of proteins in these tests, tags left out. Where a name states a change or a piece, a line headed by the entry shows the natural chain unless it says otherwise.
UniProt Q06136: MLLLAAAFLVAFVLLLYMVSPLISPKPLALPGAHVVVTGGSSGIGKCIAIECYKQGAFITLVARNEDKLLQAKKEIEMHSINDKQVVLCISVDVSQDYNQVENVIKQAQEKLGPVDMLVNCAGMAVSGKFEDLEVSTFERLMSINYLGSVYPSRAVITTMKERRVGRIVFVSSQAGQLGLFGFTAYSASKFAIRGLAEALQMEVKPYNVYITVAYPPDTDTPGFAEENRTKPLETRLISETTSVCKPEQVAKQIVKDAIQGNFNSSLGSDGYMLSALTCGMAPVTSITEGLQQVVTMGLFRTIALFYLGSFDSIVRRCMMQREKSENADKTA
UniProt P50213: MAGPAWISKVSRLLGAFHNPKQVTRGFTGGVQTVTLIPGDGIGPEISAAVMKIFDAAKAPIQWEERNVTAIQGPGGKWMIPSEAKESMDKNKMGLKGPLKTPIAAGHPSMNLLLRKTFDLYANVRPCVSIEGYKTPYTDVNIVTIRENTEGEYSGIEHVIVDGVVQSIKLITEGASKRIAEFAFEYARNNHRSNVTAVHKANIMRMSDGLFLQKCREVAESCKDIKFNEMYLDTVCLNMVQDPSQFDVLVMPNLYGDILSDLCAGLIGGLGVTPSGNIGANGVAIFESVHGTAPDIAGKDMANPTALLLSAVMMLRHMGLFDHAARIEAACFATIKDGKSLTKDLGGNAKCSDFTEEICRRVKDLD
UniProt Q8N766: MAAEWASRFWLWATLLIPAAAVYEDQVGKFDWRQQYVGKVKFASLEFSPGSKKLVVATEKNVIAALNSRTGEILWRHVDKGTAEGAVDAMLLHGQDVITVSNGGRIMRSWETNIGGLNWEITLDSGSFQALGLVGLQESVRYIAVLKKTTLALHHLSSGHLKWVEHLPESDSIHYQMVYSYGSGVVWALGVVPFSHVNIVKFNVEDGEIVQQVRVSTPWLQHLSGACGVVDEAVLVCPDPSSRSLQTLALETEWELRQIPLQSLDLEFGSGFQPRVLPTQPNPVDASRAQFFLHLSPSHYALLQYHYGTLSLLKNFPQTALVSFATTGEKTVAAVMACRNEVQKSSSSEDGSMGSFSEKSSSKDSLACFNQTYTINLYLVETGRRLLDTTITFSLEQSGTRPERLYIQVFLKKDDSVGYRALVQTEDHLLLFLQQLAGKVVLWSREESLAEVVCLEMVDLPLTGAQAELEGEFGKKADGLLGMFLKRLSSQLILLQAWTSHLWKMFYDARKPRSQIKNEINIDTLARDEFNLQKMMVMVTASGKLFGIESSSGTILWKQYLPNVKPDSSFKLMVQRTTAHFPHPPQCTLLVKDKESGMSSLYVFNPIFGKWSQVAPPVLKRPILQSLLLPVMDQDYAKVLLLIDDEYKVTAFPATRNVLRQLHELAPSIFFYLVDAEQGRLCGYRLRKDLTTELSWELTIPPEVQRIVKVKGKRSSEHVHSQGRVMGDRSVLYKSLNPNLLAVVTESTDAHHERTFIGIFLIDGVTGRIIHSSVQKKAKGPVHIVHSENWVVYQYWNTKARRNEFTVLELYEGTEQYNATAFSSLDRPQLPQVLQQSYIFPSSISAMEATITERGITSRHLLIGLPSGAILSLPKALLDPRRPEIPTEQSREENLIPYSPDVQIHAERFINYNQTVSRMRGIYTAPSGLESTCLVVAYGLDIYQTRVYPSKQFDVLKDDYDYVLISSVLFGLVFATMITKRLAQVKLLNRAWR
UniProt P56937: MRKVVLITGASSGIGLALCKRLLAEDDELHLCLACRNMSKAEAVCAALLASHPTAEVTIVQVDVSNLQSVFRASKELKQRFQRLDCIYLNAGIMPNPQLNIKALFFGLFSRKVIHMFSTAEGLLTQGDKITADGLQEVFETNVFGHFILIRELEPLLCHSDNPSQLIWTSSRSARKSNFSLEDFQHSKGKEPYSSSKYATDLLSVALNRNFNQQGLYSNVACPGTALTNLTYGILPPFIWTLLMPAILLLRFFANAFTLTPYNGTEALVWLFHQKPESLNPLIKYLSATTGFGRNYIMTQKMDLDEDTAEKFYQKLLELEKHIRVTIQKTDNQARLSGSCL
UniProt Q9NR82, whole entry: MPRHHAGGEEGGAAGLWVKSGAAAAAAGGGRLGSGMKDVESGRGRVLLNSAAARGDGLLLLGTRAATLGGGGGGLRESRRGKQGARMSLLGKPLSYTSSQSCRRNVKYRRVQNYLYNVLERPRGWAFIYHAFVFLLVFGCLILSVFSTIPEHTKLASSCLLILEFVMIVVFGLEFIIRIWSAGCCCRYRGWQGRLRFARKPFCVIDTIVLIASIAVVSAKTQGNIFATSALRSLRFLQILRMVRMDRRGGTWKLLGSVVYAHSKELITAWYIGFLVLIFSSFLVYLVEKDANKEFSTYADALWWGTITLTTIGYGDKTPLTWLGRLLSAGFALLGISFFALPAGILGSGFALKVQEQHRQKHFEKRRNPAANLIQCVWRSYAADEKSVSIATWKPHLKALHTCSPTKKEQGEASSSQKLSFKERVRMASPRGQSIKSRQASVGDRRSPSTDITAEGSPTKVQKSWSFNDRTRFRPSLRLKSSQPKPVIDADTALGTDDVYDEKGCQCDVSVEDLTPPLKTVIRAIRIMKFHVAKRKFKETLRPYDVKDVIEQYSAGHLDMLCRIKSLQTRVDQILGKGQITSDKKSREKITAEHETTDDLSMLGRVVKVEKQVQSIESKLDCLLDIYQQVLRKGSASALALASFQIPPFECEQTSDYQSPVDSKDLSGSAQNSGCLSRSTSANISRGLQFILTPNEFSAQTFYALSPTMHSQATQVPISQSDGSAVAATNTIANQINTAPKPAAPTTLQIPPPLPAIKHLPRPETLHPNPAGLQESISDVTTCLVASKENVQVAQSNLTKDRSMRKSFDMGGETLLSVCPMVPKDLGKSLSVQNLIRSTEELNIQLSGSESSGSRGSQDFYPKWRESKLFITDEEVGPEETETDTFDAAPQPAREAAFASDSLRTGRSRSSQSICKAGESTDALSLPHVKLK
UniProt Q13151: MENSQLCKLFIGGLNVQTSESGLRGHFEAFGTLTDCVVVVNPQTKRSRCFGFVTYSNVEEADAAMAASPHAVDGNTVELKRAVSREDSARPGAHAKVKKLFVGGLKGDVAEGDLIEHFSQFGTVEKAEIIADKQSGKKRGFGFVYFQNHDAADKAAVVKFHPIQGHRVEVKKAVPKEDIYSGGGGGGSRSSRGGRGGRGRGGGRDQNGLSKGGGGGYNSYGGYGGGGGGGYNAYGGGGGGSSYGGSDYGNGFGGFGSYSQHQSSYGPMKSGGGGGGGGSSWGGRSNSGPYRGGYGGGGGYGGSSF
UniProt Q9UKS7: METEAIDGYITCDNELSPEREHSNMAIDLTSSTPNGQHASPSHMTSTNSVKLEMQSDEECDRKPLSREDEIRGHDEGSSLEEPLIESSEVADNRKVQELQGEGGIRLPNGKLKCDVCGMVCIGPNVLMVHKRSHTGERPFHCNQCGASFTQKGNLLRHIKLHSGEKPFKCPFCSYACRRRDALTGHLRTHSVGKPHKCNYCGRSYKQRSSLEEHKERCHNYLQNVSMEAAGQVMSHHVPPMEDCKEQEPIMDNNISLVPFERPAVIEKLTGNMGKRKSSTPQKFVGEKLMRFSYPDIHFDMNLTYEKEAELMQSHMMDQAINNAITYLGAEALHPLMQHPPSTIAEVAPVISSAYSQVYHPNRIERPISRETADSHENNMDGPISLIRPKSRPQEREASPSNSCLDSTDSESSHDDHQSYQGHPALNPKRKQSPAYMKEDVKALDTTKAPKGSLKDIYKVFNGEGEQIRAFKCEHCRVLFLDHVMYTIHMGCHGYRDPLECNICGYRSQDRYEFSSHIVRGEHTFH
UniProt P14866: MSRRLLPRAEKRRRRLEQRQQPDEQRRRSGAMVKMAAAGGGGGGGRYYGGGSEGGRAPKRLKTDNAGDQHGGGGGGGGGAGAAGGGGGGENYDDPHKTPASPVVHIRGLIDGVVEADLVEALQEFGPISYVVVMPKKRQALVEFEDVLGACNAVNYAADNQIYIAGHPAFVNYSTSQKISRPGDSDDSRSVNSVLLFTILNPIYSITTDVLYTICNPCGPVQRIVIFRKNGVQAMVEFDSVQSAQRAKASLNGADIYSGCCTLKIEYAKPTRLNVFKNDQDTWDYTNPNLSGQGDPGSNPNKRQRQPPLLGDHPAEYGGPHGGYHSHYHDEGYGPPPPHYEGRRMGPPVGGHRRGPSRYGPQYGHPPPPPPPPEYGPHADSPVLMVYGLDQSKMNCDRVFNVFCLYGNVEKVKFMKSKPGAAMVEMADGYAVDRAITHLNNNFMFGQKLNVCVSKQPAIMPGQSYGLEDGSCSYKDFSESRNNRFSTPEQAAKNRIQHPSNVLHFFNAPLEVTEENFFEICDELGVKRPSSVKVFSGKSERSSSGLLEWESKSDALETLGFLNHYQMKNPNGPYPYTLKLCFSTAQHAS
UniProt P52597: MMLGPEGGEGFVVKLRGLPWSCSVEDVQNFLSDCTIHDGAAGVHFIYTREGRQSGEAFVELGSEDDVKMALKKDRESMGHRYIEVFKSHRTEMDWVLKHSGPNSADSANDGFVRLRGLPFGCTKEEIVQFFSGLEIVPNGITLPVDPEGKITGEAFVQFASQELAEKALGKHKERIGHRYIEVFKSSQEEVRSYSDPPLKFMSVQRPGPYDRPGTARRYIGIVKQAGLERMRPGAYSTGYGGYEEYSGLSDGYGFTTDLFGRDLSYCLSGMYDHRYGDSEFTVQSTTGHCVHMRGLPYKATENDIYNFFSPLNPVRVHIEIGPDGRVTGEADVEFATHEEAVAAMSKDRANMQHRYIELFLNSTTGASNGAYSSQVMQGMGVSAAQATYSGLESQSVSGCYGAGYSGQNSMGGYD
UniProt O15357: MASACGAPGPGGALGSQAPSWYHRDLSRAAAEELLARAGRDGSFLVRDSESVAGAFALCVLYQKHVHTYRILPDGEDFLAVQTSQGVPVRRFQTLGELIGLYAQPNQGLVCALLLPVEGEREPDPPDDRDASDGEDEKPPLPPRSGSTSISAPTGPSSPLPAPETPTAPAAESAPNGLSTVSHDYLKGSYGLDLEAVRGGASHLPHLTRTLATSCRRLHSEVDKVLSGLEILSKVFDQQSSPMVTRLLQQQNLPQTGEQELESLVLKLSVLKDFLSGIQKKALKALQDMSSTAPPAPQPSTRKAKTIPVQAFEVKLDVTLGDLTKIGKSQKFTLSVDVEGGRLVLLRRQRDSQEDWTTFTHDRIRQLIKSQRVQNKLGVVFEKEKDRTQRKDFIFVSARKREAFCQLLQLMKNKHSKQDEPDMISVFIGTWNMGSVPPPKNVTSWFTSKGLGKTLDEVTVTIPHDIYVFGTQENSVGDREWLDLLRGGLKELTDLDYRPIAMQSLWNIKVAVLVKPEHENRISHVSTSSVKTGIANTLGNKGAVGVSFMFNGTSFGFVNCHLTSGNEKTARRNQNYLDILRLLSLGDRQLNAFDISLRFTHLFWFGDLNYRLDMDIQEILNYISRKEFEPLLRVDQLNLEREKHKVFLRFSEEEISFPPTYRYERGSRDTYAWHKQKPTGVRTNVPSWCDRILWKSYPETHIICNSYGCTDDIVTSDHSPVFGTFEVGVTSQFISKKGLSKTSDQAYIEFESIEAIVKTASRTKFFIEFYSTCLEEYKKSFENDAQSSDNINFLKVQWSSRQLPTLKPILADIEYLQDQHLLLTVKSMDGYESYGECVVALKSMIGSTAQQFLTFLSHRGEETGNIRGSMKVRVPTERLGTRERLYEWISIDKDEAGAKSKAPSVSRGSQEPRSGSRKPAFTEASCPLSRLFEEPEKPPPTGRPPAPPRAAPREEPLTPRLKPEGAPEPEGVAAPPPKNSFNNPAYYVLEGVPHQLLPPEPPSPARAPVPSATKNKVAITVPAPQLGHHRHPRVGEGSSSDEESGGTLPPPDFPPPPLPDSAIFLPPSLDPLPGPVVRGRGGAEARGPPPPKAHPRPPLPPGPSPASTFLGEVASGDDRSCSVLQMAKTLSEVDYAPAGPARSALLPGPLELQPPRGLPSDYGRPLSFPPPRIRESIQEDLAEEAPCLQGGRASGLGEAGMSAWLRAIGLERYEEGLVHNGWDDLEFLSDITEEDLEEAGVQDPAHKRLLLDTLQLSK
UniProt Q86YM7: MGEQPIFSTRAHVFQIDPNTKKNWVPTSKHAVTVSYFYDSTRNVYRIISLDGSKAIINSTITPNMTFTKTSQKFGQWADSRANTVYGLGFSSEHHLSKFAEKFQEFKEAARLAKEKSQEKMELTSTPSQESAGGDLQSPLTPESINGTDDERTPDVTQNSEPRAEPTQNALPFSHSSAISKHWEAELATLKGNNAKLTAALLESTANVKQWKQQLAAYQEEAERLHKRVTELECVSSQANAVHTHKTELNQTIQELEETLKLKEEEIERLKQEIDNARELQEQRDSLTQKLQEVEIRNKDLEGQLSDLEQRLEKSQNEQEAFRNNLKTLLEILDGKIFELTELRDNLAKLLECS

compound: COc1ccc(Cn2ccc3ccc(C(=O)NO)cc32)cc1; assay: dose-dependent thermal stabilisation call (2D-TPP, DLPTP, 10% FDR) (binary (1 = stabilised)); higher = stabilised by the compound; conditions: system: HL-60 intact cells; concentration range 0.04-10 µM

Row | Target | dose-dependent thermal stabilisation call
1 | KCMF1 (UniProt Q9P0J7) | inactive: 0
2 | KDSR (UniProt Q06136) | inactive: 0
3 | IDH3A (UniProt P50213) | inactive: 0
4 | IK (UniProt Q13123) | inactive: 0
5 | KIAA0090 (UniProt Q8N766) | inactive: 0
6 | HSD17B7 (UniProt P56937) | inactive: 0
7 | KARS (UniProt Q15046) | inactive: 0
8 | ITSN1 (UniProt Q15811) | inactive: 0
9 | INTS12 (UniProt Q96CB8) | inactive: 0
10 | ITPRIP (UniProt Q8IWB1) | inactive: 0
11 | INTS5 (UniProt Q6P9B9) | inactive: 0
12 | IREB2 (UniProt P48200) | inactive: 0
13 | IPO5 (UniProt O00410) | inactive: 0
14 | ITGAV (UniProt P06756) | inactive: 0
15 | ITSN2 (UniProt Q9NZM3) | inactive: 0
16 | KBTBD8 (UniProt Q8NFY9) | inactive: 0
17 | IL17RA (UniProt Q96F46) | inactive: 0
18 | KCNQ5 (UniProt Q9NR82) | inactive: 0
19 | HNRNPA0 (UniProt Q13151) | inactive: 0
20 | HSPA1A (UniProt P0DMV8) | inactive: 0
21 | IKZF2 (UniProt Q9UKS7) | inactive: 0
22 | HNRNPL (UniProt P14866) | inactive: 0
23 | HNRNPF (UniProt P52597) | inactive: 0
24 | JMJD1B (UniProt Q7LBC6) | inactive: 0
25 | INPP5B (UniProt P32019) | inactive: 0
26 | INPPL1 (UniProt O15357) | inactive: 0
27 | HOMER1 (UniProt Q86YM7) | inactive: 0
